This passage reports MIC results from patent US9802902B2, “Antifungal compound” (priority 2012, dated 2017).

The assay concerns Candida albicans (ATCC 10231, yeast). Nature of the assay: MIC by microdilution assay, planktonic C. albicans. The following applies: ATCC10231, 24 h, read-out: MIC against C. albicans, planktonic C. albicans, 22° C., 24 hours. In general terms: In broth dilution the organism is exposed to a series of concentrations in liquid medium.

In brackets after ≈: the same amount, converted by molar mass.

One may read the MIC as the least concentration at which growth counts as inhibited. As for `C[C@@H]1[C@H](O)[C@@H](C)/C=C/C=C/C=C/C=C/C=C/C=C/C=C/[C@H](O[C@@H]2O[C@H](C)[C@@H](O)[C@H](N)[C@@H]2O)C[C@@H]2O[C@](O)(C[C@@H](O)C[C@@H](O)[C@H](O)CC[C@@H](O)C[C@@H](O)CC(=O)O[C@H]1C)C[C@H](O)[C@H]2C(=O)O` [amphotericin B], the MIC was 3.9 µg/mL (≈ 4.22 µM).

With `OC(Cn1cncn1)(Cn1cncn1)c1ccc(F)cc1F` [fluconazole], the minimum inhibitory concentration (MIC) is greater than 125 µg/mL.
